{"source": "paper PMC7438335", "biological_target": "T1, CENP-A^CID::YFP fusion protein (Drosophila), Q9V6Q2", "T1 chain": "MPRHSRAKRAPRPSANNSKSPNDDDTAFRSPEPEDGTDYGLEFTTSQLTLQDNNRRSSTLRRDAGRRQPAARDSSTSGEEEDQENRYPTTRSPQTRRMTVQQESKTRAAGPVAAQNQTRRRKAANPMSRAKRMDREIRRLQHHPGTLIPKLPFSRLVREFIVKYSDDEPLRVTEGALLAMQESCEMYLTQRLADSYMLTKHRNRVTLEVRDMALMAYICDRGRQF", "experiment": "co-IP; extracts of a stable S2 cell line expressing CENP-A^CID::YFP; IP with αBAF or αGFP antibodies, WB", "conditions": "remark: other sources report otherwise", "note": "These are yes or no findings as the source states them, for the method shown. Binding seen in cells or lysates may run through a third protein. Tags and fused reporters may be left off the sequences shown.", "data": [{"binder": "CENP-C, Q9VHP9 1-1411 (protein) MSKPQNNDTLELDDILSQPVKDKERFAAFMMRKLAENKPAQNDNLFGNFKLDFDLDFEVPLIKKSQAKPKSKLPEVQPLGELVSKNSAATEKVNEPPVDQAPNENVPPRRSPTLSPNNRRSMRRSGNVPGSDKLRRHAIRRRSRSCGRQLLPEFEETVNLTRSISSPVNFLPEISSTPCTEKQKEEVAKNTTRVETDKPAEKPMELSQEPEPENPLQTKVTSPARNPILAAEIEQICKERQSSFHKNVLQLDYSGRAPYSRPPTPSSPSVAGLRRTYTMEKGPAPGQLLLSPSHRYDTPSKMPVVKAKRFNQELMVPDTPERQSHDPAWQSEPQPEFVVPETQPQDLGELVQTLSRSAISPIVVINTSNSNRSVRRDAVAMKSVPTSPVTALSSPPIAPSPRRSAAASPQKSIAQLPRVEENMDAIMTDDESDEHPSTVPLNLAPSGGNTTRQRRLRSSNRARATIESQESSMRLLNLHKSVNAKKSKPRKTAIPLNKAPSAPINGEQFARELTRMSNYEILDLRKRNSLNEIYPLNGHRNHRSEKLILEEEIQRELLRRNLMDEAEGLPKQQSSDDSNEDYIPVPPKTQSLRTKSNDRSQGRGRPRSTRRDLPMTTELVNYLGLSQTLETRRKSSKDGKRCLYTKGSSDHEDNDSLSPVKLPRLSKSIQIVPPPPVSLRYSQSLQNLPCSGKFDFDNVVMAAPPDFHDSVNSDAIEIAPPPPEYVVNTRGRSTSGRKSNKNDLVLPPPGYEGGQEEEHDERPSQPRCTAKELQQSTQNGRRAMENELVPPPIEYVEEENRNNEQSRRSTKNGNLVDRNTHNAVEYCEPPEPPEYDDSDHGQASILRRSGKKLQHSKQSVQKSNKEQIIAPSYENNEDYDSDEEPIYNEEYGKEESQNKNVTRRKSDKDEMASHTLECIEGPDPNWNSSCNKQNRNHQNASKSKENDKLANRSSKSQKLSNPRQNAVGTEKSVALSNRGEECTEKSSDVMESLRVNTPTPPIDQNSDDVPSRNPSPSRTLLSDDVPSTSRAALEFLQRSQNMSKSRPPDESSADVVFKKPLAPAPRAKSKKGKSEVDKLKLAKMPVEAEELNTTGIRRSKRGQVPLQMSWCHTMDPSKFNFMSGFIEPRSKNSKTKKGNLSKAKKASATKPKPTVEKNLPDNRGPLCSSTPRISEKLPGAIPHSESLGLSTLTWEETEVQAEAEKVPKKRGRPKKAVGGVQTDTEAEPEPEPEPMISSVAPLTSDQEEPDVPDEQAPYTEAALGPVVFSTPLRDEQEEASTKLMQWLRGVGDAPPSASMSDENASVSSANELIFCQVDGIDYAFYNTKEKAMLGYMRFKPYQKRSMKQAKVHPLKLLVQFGEFNVETLAVGEEKEVHSVLRVGDMIEIDRGTRYSIQNAIDKVSVLMCIRS", "values": [{"measurement": "binding", "value": "no binding"}]}]}
